This passage reports binding results from patent US20030129186A1.

By UniProt entry, the sequences of proteins in these tests, tags left out. Residues count along the entry.
UniProt Q07954, residues 20-4544: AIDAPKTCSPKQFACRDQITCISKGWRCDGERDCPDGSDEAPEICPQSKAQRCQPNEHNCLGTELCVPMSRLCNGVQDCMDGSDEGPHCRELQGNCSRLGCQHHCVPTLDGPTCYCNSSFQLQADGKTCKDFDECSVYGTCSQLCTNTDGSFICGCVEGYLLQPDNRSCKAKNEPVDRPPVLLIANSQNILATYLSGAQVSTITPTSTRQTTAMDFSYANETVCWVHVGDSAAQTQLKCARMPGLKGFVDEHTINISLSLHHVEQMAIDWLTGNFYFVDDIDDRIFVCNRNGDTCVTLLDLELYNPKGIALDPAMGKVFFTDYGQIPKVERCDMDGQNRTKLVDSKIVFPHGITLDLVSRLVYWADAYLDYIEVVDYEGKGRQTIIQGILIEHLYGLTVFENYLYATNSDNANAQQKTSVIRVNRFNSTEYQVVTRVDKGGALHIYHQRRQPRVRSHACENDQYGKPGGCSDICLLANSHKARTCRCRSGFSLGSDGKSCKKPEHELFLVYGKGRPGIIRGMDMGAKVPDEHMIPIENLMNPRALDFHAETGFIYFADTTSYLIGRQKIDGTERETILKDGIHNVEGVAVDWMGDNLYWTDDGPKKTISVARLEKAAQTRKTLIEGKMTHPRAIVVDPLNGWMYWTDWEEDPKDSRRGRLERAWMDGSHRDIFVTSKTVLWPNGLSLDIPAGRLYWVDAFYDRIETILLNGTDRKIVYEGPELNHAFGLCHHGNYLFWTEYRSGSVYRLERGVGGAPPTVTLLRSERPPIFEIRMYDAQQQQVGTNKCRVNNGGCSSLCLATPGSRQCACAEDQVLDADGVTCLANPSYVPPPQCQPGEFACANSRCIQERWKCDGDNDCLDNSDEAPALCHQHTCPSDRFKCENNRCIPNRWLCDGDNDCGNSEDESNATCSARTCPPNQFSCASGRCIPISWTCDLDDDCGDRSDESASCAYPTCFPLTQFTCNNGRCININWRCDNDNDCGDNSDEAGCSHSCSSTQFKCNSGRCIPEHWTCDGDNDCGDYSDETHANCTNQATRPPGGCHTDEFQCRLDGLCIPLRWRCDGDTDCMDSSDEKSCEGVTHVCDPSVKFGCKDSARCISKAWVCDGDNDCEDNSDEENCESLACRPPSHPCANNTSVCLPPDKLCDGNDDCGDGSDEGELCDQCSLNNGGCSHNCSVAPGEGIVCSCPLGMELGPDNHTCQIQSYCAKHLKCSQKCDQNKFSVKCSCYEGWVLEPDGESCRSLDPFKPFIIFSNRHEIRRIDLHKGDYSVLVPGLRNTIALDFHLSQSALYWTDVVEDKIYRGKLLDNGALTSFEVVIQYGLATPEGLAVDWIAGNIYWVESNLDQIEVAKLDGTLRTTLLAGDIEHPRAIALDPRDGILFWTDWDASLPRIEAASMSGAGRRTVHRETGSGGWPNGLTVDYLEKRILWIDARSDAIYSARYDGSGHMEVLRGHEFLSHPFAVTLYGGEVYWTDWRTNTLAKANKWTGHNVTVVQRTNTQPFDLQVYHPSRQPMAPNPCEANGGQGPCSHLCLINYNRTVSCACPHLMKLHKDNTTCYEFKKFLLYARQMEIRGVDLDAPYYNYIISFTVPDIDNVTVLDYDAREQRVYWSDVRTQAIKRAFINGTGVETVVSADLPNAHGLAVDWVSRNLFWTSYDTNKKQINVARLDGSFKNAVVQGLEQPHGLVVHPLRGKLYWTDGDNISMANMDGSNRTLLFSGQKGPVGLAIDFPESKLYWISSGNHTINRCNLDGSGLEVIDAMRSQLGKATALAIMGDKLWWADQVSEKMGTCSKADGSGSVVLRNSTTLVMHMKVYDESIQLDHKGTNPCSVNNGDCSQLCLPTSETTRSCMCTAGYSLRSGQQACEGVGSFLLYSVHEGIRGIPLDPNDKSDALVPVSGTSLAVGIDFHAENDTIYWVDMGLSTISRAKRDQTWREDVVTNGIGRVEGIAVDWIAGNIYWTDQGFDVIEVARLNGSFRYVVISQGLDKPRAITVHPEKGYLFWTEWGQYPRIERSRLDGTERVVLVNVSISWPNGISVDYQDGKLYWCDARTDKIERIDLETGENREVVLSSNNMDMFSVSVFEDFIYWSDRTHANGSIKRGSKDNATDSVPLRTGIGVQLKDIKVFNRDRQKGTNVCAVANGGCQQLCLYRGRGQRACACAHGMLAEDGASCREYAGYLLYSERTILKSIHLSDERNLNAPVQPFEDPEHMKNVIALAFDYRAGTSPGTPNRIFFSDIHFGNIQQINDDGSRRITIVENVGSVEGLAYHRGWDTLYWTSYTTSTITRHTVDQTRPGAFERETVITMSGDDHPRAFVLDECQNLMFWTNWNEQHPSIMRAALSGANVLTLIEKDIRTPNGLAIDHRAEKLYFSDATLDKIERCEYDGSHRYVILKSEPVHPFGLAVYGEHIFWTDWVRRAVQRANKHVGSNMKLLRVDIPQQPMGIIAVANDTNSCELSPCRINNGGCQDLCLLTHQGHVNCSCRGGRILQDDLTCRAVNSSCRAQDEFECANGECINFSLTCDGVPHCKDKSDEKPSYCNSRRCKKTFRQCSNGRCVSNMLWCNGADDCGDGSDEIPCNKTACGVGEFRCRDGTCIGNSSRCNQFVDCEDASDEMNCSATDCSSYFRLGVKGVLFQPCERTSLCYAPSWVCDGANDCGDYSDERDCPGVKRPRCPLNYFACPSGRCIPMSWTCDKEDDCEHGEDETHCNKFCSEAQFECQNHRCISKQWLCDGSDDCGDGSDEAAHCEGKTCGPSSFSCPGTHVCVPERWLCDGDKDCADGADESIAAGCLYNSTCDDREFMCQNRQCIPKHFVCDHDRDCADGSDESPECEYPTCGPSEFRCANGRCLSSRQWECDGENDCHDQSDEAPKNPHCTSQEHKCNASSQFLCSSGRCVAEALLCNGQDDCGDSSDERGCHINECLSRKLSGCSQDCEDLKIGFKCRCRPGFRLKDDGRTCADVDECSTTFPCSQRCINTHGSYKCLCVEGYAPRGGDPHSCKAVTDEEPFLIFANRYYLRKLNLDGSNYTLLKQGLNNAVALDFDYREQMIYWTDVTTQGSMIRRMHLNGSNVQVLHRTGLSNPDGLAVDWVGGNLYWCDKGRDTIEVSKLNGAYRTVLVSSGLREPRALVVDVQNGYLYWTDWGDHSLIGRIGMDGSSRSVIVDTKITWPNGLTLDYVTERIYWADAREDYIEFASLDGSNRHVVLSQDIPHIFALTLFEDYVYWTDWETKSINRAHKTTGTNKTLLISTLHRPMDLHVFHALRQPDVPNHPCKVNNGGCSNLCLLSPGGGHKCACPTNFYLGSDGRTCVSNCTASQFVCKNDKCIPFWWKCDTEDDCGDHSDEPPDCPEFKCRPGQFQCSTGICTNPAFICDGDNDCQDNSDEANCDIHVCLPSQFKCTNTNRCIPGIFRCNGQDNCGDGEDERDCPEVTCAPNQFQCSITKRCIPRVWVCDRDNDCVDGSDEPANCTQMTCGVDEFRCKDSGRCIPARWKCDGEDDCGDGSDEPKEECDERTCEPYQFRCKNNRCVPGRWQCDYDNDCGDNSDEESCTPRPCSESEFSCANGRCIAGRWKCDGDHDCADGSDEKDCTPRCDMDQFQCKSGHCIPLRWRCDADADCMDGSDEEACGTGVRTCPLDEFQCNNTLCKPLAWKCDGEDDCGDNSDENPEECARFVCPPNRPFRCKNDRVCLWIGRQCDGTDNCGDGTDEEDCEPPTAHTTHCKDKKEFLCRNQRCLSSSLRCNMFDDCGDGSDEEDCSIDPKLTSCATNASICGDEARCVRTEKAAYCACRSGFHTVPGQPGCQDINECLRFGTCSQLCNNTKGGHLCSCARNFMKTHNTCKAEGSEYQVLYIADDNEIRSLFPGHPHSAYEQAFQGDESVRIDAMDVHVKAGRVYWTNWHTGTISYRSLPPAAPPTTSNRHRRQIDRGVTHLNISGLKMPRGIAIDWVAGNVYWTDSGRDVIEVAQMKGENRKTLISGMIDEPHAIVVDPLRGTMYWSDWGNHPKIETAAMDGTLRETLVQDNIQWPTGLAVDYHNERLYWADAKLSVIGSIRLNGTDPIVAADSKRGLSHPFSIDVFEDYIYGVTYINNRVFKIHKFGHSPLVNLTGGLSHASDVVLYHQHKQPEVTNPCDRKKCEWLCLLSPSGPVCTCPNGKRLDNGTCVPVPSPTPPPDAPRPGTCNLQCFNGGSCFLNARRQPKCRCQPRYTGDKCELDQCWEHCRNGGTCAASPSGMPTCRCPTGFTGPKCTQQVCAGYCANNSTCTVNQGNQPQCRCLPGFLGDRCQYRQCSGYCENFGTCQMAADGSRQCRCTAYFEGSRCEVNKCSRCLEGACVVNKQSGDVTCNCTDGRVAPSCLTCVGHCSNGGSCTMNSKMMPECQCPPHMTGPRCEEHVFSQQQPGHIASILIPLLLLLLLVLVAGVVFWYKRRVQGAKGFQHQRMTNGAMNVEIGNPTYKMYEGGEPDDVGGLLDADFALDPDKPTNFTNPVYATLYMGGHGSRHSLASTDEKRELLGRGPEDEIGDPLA

Experiment [1] addresses LRP/LRP1B on U-87 cells (human) (UniProt Q07954). Briefly: U-87 cells incubated with p97 at 4 C, DSS cross-linking, non-reducing SDS-PAGE, immunoblot with anti-LRP alpha-subunit mAb 8G1 (FIG. 29).
Experiment [2] shares this target. Briefly: U-87 cells incubated with p97 at 4 C, DSS cross-linking, non-reducing SDS-PAGE, immunoblot with anti-LRP alpha-subunit mAb 8G1 (legend of FIG. 29). (In general: In western blotting, separated proteins are transferred to a membrane and probed.)

Results are given in words; binding and its absence hold for the method and conditions named. Some binding calls cover weakened binding; strength is not graded here.

B1: recombinant human melanotransferrin (p97) (ligand, UniProt P08582 20-709, looked up)
chain: GMEVRWCATSDPEQHKCGNMSEAFREAGIQPSLLCVRGTSADHCVQLIAAQEADAITLDGGAIYEAGKEHGLKPVVGEVYDQEVGTSYYAVAVVRRSSHVTIDTLKGVKSCHTGINRTVGWNVPVGYLVESGRLSVMGCDVLKAVSDYFGGSCVPGAGETSYSESLCRLCRGDSSGEGVCDKSPLERYYDYSGAFRCLAEGAGDVAFVKHSTVLENTDGKTLPSWGQALLSQDFELLCRDGSRADVTEWRQCHLARVPAHAVVVRADTDGGLIFRLLNEGQRLFSHEGSSFQMFSSEAYGQKDLLFKDSTSELVPIATQTYEAWLGHEYLHAMKGLLCDPNRLPPYLRWCVLSTPEIQKCGDMAVAFRRQRLKPEIQCVSAKSPQHCMERIQAEQVDAVTLSGEDIYTAGKTYGLVPAAGEHYAPEDSSNSYYVVAVVRRDSSHAFTLDELRGKRSCHAGFGSPAGWDVPVGALIQRGFIRPKDCDVLTAVSEFFNASCVPVNNPKNYPSSLCALCVGDEQGRNKCVGNSQERYYGYRGAFRCLVENAGDVAFVRHTTVFDNTNGHNSEPWAAELRSEDYELLCPNGARAEVSQFAACNLAQIPPHAVMVRPDTNIFTVYGLLDKAQDLFGDDHNKNGFKMFDSSNYHGQDLLFKDATVRAVPVGEKTTYRGWLGLDYVAALEGMSSQQC
As to B1, the binding entry in experiment [1] and in experiment [2] was “binds” each time.
